Assay results as given in PMC5595348.
These are yes or no findings as the source states them, for the method shown. In cells and extracts the contact can be indirect. Some entries that bind do so weakly or less than the wild type. Tags and fused reporters may be left off the sequences shown.

Legend:
[1] = target: T1, VN-173-TAB1 fusion protein (human) (UniProt Q15750); assay: split reporter; BiFC with Venus YFP fragments VN-173 and VC-155 in living HEK293T cells, 24 h after transfection, pre-cultured at 4 °C for 10 min; confocal microscopy
T1 sequence: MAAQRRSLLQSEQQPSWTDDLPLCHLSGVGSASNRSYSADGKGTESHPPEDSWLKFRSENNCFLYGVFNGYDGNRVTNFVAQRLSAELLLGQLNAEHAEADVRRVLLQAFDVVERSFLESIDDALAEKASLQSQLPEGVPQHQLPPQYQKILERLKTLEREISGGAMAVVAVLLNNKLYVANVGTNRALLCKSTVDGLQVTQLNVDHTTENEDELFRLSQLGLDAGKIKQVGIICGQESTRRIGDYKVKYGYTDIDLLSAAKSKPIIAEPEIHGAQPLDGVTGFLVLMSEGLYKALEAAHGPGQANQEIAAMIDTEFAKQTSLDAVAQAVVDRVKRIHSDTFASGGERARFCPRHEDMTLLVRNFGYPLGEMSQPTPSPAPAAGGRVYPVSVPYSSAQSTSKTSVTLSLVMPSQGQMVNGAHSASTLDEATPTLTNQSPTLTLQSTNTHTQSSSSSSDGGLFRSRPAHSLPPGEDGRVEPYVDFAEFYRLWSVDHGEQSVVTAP

[2] = target: T2, VN-173-TLR7 fusion protein (human) (UniProt Q9NYK1); assay: as above
T2 sequence: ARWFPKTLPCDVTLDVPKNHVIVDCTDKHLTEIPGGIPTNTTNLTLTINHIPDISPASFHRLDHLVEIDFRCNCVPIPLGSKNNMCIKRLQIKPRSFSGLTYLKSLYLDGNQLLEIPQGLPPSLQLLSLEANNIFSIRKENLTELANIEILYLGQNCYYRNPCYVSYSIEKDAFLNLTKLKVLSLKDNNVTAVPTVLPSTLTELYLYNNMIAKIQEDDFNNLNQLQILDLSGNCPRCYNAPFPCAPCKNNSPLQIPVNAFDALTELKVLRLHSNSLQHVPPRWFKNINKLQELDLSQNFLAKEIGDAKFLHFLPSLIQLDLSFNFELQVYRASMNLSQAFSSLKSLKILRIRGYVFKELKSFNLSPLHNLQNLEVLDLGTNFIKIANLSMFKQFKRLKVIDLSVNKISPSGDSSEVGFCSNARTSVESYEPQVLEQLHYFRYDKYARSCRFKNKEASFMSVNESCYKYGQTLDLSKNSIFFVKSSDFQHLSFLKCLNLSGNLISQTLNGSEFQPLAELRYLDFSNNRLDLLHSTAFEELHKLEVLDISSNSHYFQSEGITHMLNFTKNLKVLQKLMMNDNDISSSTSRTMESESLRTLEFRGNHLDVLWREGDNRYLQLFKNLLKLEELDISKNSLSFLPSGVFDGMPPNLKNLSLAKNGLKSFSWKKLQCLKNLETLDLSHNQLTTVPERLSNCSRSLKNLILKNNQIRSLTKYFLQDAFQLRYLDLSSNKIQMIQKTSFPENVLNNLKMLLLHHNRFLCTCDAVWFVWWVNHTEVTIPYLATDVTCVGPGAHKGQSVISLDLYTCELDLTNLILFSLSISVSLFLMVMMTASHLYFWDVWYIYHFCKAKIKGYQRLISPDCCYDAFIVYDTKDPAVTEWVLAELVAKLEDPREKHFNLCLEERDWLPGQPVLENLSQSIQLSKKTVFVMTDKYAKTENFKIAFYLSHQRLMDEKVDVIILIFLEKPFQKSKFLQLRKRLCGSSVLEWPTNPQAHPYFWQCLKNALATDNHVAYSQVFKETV

binding [1]: binds | binding [2]: binds
Substance: VC-155-HRS fusion protein (from UniProt O14964-1 1-777)
